Protein sequences, listed by entry. Tags and fused reporters are not part of them. Lines headed by an entry give the natural chain unless they say otherwise; changes in a name come on top.
UniProt Q15843, whole entry, looked up: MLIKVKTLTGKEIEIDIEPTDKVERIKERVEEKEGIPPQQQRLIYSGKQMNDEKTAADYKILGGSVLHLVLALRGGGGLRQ
UniProt Q9NR45: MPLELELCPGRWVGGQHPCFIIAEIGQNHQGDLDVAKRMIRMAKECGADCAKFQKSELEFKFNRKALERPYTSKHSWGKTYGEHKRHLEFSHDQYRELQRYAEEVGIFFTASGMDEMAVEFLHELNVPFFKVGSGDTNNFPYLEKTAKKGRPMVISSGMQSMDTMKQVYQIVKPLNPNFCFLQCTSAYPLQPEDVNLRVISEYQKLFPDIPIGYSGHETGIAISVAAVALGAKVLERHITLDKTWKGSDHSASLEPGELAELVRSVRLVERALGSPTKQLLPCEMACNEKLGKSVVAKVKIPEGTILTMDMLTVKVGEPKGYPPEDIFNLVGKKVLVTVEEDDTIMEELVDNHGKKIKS
UniProt Q5VZE5: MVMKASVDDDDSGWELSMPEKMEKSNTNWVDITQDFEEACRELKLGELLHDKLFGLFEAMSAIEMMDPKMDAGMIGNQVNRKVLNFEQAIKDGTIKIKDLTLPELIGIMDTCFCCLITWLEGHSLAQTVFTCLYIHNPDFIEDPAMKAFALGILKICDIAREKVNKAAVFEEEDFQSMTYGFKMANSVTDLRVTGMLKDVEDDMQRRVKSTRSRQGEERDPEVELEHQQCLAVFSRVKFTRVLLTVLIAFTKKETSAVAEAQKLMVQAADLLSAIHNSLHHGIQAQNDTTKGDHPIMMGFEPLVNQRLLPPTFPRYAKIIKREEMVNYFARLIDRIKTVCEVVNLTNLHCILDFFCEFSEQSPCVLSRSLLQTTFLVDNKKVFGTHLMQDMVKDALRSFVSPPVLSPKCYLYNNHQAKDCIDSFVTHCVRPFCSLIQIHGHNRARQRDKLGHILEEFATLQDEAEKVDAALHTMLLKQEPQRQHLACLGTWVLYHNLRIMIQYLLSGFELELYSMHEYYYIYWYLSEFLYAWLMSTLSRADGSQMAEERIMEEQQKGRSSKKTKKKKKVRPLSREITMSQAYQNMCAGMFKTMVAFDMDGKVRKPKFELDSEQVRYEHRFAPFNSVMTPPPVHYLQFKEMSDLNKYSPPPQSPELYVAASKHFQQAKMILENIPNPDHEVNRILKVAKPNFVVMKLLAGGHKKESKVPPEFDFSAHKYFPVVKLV
UniProt Q969V3: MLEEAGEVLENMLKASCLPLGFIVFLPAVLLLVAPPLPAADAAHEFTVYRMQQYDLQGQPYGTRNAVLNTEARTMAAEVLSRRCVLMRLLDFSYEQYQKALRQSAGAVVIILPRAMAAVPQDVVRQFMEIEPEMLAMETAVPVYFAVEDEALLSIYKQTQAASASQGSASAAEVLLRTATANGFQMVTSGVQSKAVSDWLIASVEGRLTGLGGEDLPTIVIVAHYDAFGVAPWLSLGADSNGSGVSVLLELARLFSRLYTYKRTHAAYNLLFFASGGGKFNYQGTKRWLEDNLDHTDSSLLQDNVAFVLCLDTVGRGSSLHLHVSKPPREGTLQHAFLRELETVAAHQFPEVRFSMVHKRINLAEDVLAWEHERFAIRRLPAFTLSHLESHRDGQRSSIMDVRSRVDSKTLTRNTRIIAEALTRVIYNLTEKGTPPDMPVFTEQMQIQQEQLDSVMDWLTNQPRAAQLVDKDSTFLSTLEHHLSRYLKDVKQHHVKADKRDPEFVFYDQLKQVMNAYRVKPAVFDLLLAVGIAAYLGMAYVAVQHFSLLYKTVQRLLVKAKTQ
UniProt Q96I59: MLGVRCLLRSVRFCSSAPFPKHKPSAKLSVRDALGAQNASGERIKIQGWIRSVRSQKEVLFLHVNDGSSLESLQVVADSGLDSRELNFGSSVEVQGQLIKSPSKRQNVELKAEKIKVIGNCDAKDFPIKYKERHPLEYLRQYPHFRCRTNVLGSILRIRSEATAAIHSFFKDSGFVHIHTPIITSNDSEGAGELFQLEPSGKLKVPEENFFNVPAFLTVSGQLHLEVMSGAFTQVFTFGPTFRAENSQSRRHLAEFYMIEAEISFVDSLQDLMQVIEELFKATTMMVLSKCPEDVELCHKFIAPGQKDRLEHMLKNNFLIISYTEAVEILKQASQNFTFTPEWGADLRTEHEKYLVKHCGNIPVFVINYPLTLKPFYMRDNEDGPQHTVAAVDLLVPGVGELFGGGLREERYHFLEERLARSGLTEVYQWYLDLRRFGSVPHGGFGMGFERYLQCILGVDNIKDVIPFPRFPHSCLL
UniProt Q6XQN6: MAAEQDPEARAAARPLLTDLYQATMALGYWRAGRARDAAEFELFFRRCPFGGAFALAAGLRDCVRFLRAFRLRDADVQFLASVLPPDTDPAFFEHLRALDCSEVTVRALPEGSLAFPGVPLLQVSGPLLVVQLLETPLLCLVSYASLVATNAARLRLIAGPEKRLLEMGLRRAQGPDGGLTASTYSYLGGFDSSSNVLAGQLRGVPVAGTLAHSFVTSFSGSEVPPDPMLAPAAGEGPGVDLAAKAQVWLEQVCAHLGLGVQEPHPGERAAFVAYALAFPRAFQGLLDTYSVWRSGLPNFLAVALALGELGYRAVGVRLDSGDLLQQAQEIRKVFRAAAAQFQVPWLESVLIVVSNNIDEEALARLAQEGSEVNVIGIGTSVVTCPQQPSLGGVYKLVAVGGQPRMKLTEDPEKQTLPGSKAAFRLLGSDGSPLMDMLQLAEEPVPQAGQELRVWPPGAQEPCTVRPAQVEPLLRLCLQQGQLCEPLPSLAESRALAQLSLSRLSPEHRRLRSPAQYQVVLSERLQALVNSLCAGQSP
UniProt Q96RE7: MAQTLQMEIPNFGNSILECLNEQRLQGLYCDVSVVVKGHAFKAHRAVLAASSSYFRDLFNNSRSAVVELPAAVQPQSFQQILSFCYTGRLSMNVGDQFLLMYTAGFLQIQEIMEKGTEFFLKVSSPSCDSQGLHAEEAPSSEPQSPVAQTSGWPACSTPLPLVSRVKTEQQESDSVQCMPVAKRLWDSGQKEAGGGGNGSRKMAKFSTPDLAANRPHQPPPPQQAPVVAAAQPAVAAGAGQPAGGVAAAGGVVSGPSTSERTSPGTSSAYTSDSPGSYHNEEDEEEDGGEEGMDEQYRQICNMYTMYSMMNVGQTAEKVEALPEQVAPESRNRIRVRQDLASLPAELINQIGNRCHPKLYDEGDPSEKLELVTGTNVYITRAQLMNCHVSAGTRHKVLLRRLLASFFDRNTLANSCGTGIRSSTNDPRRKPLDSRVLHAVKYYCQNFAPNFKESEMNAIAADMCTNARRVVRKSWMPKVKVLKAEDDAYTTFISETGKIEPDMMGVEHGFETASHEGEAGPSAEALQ
UniProt O95299, whole entry, looked up: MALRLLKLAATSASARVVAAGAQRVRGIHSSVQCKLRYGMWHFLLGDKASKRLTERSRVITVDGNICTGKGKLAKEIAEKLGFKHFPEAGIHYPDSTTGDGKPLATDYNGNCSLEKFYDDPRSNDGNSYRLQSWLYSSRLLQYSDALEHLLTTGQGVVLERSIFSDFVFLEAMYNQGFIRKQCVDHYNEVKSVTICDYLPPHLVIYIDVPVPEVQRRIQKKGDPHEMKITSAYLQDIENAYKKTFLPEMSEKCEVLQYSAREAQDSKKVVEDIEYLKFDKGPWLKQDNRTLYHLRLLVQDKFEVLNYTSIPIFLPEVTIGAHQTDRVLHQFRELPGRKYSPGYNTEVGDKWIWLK
UniProt Q13459: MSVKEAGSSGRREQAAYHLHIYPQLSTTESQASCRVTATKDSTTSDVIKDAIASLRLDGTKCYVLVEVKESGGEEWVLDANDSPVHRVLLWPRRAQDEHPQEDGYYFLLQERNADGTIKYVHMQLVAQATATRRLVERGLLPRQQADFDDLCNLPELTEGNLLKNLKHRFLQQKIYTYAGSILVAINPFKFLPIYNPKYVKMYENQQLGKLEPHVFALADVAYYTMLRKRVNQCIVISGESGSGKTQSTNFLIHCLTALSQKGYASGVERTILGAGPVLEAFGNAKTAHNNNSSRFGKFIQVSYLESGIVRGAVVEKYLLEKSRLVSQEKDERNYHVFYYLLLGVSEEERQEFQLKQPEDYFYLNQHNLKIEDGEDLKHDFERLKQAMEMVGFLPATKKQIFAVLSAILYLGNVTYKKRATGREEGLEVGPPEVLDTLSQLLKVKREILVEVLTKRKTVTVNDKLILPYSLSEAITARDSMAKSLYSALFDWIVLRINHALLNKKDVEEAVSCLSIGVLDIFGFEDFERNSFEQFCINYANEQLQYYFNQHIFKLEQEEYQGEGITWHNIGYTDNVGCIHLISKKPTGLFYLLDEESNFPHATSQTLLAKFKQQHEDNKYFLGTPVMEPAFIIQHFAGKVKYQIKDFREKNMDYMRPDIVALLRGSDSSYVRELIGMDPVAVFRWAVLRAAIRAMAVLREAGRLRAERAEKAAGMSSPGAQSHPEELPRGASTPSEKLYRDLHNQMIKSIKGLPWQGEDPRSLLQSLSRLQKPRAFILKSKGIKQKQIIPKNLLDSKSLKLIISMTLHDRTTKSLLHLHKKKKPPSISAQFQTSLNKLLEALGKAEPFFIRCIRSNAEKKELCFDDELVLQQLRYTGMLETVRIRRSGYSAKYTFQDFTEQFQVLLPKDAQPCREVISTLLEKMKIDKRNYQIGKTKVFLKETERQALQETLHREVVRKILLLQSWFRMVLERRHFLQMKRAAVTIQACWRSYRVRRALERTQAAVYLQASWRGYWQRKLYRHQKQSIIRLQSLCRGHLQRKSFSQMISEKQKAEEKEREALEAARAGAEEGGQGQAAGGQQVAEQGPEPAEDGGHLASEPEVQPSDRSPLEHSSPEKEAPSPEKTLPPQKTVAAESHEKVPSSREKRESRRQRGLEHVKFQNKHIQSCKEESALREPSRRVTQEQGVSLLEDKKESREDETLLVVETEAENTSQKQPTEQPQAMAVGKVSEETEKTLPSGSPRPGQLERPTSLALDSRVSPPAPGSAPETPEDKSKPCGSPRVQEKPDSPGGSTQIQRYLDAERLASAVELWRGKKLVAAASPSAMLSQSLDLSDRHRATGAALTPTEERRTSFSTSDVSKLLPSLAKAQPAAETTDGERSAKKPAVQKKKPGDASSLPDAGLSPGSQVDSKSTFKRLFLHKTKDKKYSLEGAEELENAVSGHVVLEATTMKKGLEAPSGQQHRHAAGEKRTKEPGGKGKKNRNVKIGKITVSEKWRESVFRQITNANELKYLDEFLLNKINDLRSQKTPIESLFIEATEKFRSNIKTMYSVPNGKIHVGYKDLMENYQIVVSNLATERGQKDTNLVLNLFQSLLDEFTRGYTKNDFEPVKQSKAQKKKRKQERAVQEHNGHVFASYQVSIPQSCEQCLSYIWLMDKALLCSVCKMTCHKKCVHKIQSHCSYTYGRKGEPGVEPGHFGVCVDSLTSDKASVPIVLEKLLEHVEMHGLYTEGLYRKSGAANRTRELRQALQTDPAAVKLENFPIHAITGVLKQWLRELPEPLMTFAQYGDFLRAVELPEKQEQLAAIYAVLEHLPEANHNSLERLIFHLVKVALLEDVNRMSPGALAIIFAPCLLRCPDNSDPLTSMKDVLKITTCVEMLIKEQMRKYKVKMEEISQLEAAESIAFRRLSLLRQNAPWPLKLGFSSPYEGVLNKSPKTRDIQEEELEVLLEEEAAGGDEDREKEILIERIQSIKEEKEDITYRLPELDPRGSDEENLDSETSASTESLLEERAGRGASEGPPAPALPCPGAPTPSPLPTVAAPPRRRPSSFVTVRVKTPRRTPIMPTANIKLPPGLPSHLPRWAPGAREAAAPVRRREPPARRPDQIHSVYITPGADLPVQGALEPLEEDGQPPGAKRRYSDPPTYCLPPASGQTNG
UniProt P49321, whole entry, looked up: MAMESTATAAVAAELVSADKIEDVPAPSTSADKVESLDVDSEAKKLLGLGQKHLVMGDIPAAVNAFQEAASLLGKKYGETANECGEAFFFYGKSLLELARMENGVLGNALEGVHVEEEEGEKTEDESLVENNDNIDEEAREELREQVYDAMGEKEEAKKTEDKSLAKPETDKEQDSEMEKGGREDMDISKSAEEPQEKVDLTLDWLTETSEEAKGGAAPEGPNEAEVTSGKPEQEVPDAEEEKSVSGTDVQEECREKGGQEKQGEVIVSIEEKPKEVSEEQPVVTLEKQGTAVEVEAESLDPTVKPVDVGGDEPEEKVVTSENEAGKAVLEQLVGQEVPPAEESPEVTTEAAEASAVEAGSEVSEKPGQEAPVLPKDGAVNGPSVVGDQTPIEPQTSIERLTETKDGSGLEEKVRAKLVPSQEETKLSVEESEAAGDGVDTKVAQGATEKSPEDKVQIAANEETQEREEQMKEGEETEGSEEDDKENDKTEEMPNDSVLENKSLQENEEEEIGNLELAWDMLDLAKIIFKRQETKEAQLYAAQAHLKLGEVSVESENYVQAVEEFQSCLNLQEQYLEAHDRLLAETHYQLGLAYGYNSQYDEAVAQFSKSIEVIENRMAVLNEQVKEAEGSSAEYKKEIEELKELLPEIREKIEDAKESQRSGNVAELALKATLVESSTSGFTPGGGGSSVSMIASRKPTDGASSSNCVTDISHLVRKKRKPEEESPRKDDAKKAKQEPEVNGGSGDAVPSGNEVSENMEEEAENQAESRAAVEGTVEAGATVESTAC

The list shows a part of the results.
The targets below were run with CC1=C2C(=CC=C1)N=C(N(C2=O)C3=CC=CC=C3C)CN4C=NC5=C(N=CN=C54)N (assay: log2 fold change, soluble protein after heating vs DMSO (PISA); higher = thermal stabilisation; K562 cells, 10 uM, 30 min; active = over 0.2 and 3.5 SD of the protein, either way, in both replicates (recomputed)).
Procedure, shortened: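 K562 cells at 2×10^6 cells/mL were exposed to 10 μM compound for 30 min, then aliquots were heated for 3 min across 48°C-58°C, pooled, and extracted in PBS containing 0.5% NP-40 at 4°C. The supernatant after 21,000xg for 90 min was taken as soluble protein and measured by TMTpro 16plex LC-MS/MS with channel sums equalised. Thermal stability is reported relative to control samples, with values from duplicates. Fold changes are given on a log2 scale.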
For NEDD8 (UniProt Q15843), the log2 fold change was inactive: 0.077.
With NANS (UniProt Q9NR45) the log2 fold change was inactive: 0.071.
NAA35 (UniProt Q5VZE5) was tested, and the log2 fold change was inactive: -0.043.
NCLN (UniProt Q969V3) was tested, and the log2 fold change was inactive: -0.012.
In the case of NA, A0A494C071, the log2 fold change is reported as inactive: 0.236.
In the case of NADK (UniProt O95544), the log2 fold change is reported as inactive: 0.047.
In the case of NARS2 (UniProt Q96I59), the log2 fold change is reported as inactive: 0.059.
With NDUFS6 (UniProt O75380) the log2 fold change was inactive: -0.04.
With NCALD (UniProt P61601) the log2 fold change was inactive: 0.044.
For NAPRT (UniProt Q6XQN6), the log2 fold change was inactive: 0.053.
For NACC1 (UniProt Q96RE7), the log2 fold change was inactive: 0.092.
With NDUFA10 (UniProt O95299) the log2 fold change was inactive: 0.064.
NDUFAB1 (UniProt O14561) was tested, and the log2 fold change was inactive: 0.
NCAPD2 (UniProt Q15021) was tested, and the log2 fold change was inactive: 0.044.
In the case of NDUFB5 (UniProt O43674), the log2 fold change is reported as inactive: -0.029.
For NDUFA7 (UniProt O95182), the log2 fold change was inactive: 0.007.
In the case of NDUFS5 (UniProt O43920), the log2 fold change is reported as inactive: -0.002.
For MZT2A (UniProt Q6P582), the log2 fold change was inactive: 0.037.
MYO9B (UniProt Q13459) was tested, and the log2 fold change was inactive: 0.116.
NDUFAF1 (UniProt Q9Y375) was tested, and the log2 fold change was inactive: 0.092.
With NASP (UniProt P49321) the log2 fold change was inactive: 0.054.
NAT10 (UniProt Q9H0A0) was tested, and the log2 fold change was inactive: -0.18.
For NDUFB10 (UniProt O96000), the log2 fold change was inactive: 0.06.
With NDUFAF6 (UniProt Q330K2) the log2 fold change was inactive: -0.006.

Source: the supplement of paper PMC10849652
